Test results as given in paper PMC7519303.

Key:
MglA-His6 (M. xanthus) [1] = target: T1, MglA-His6 (M. xanthus) (UniProt Q1DB04); assay: condition: only MglA-His6 without a preloaded nucleotide; pull-down; MglA-His6 without preloaded nucleotide, then mixed with SgmX-Strep; applied to Ni2+-NTA agarose, washed, eluted with 400 mM imidazole; SDS/PAGE, Coomassie stain; both purified
T1 sequence: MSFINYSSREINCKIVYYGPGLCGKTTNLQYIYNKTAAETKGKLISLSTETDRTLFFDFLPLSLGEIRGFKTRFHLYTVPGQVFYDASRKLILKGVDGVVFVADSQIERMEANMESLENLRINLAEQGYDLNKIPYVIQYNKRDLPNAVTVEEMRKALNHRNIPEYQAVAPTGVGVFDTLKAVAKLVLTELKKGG

MglA-His6 (M. xanthus) [2] = target: T1, MglA-His6 (M. xanthus); assay: pull-down; MglA-His6 preloaded with GDP, then mixed with SgmX-Strep; applied to Ni2+-NTA agarose, washed, eluted with 400 mM imidazole; SDS/PAGE, Coomassie stain; both purified
MglA-His6 (M. xanthus) [3] = target: T1, MglA-His6 (M. xanthus); assay: pull-down; MglA-His6 preloaded with GTP, then mixed with SgmX-Strep; applied to Ni2+-NTA agarose, washed, eluted with 400 mM imidazole; SDS/PAGE, Coomassie stain; both purified

- binding (MglA-His6 (M. xanthus) [1]): no binding
- binding (MglA-His6 (M. xanthus) [3]): binds
Substance: SgmX-Strep (C-terminal Strep-tagged SgmX variant) (M. xanthus)
- binding (MglA-His6 (M. xanthus) [2]): no binding (only MglA-His6 preloaded with GDP)

These are yes or no findings as the source states them, for the method shown. For part of these data: A result given as binding can be weak or reduced; the word gives no strength. Where a sequence is shown, tags or fusion partners need not be part of it.
